# Library compounds against nucleic acid targets

Source: the ROBIN nucleic acid binder screens (doi:10.1002/anie.202211358).

Targets (5′ to 3′):
T1: TPP riboswitch RNA three-way junction, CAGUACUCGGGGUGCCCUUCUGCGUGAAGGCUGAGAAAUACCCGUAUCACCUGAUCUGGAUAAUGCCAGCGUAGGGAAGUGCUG. Hit rate about 0.7% of about 24,000 compounds.
T2: PreQ1 riboswitch RNA pseudoknot, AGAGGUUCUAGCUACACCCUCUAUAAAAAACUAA. From B. subtilis. Hit rate about 0.7% of about 24,000 compounds.
T3: SAM-II riboswitch RNA pseudoknot, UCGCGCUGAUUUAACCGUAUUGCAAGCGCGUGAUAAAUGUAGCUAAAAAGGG. Hit rate about 1% of about 21,000 compounds.

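Each compound is printed as two spots on a slide made to bind it covalently, so it has no test concentration; the read-out is fluorescence of the bound, labelled oligonucleotide. The data file lists only calls. An earlier report of the laboratory on the PreQ1, TPP and SAM-II riboswitches (doi:10.1038/s41467-019-09493-3) used 1 µM RNA for 2 h and required a mean Z-score above 3 (spot signal-to-noise against the whole library), a score well above that on a control array, and duplicate spots agreeing (coefficient of variation under 100); it then also set aside compounds that hit other targets, which this list keeps. The cut-offs behind this list may differ. A missing hit is not proof of no binding, and a hit is not a measured affinity.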
A compound is marked hit if it was called a hit and no hit if it was screened but was not.
Compounds were drawn at random from those tested, without regard to their results.
A target missing from an entry has no call listed here.

For COc1ccc(Nc2nccc(NCCO)n2)cc1 the calls were T1: no hit; T2: no hit; T3: no hit. For CCc1nc2sc(C(=O)Nc3cccc(C(F)(F)F)c3)c(N)c2cc1C the calls were T1: no hit; T2: no hit; T3: no hit. Calls for Nc1nonc1-c1nc2ccccc2n1CC(=O)Nc1ccc2c(c1)CCC2 are T1: no hit; T2: no hit; T3: no hit. For CNC(=O)c1ccc(-c2cnc3ncc(Cc4ccc5ncccc5c4)n3n2)cc1F the calls were T1: no hit; T2: no hit; T3: no hit. N[C@H](Cc1c[nH]c2ccccc12)C(=O)N1CCCN(c2ccccc2)CC1 was scored T1: no hit; T2: no hit; T3: no hit. With Cc1csc(NC(=O)c2sc3nc4c(c(C(F)(F)F)c3c2N)CCC4)n1 the screen gave T1: no hit; T2: no hit; T3: no hit. Calls for NC1=C(c2nc3ccccc3[nH]2)C(=O)CN1Cc1ccccn1 are T1: no hit; T2: no hit.

For Nc1cc(-c2cnc3ccccc3c2)ccn1 the calls were T1: no hit; T2: no hit; T3: no hit. For CC=CC(=O)N(CC)c1ccccc1C the calls were T1: no hit; T2: no hit; T3: no hit. Calls for Cc1nnc2c3ccccc3nc(Nc3ccc(F)cc3)n12 are T1: no hit; T2: no hit; T3: no hit. With Cc1nnc2c3ccccc3nc(Nc3cccc(C(F)(F)F)c3)n12 the screen gave T1: no hit; T2: no hit. With Cc1cc(=O)[nH]/c(=N/N=C2/CCCCC2C)[nH]1 (centres undefined) the screen gave T1: no hit; T2: no hit; T3: no hit. For Cn1c(COc2ccccc2)nnc1SCC(=O)c1ccccc1N the calls were T1: no hit; T2: no hit; T3: no hit. COc1ccc(Nc2nc(N)nc(CSc3nnc(C)s3)n2)cc1 was scored T1: no hit; T2: no hit; T3: no hit.

Calls for Nc1ccc(Br)cc1C(=O)c1ccccc1Cl are T1: no hit; T2: no hit; T3: no hit. With O=C(CCOc1ccccc1)N1C[C@H](CO)C[C@H](CN2CCCC2)C1 the screen gave T1: no hit; T2: no hit; T3: no hit. Cc1ccnc(NCCNC(=O)[C@H]2CNC[C@@H](C(=O)N3CCOCC3)C2)c1 was scored T1: no hit; T2: no hit; T3: no hit. With Cc1nn2c(NC3CCCC3)c3c(nc2c1-c1ccccc1)CCC3 the screen gave T1: no hit; T2: no hit. Cn1cc(-c2ccccc2OCC(O)CN2CCOCC2)cn1 (centres undefined) was scored T1: no hit; T2: no hit; T3: no hit. With Oc1ccc(NC(=S)Nc2ccccc2)cc1 the screen gave T1: no hit; T2: no hit; T3: no hit. With CNCCCN1c2ccccc2CCc2ccccc21 the screen gave T1: no hit; T2: no hit; T3: no hit.

With CCCc1nc2nc(C)cc(Nc3ccccc3OCC)n2n1 the screen gave T1: no hit; T2: no hit; T3: no hit. Cc1ccc(-c2cnn3c(NCCOCCO)cc(C)nc23)cc1 was scored T1: no hit; T2: no hit. Calls for COC(=O)c1ccc(NC(CNS(=O)(=O)c2ccccc2)c2ccccc2)cc1 (centres undefined) are T1: no hit; T2: no hit. With Cc1cccc(CCNC(=O)c2cccc(S(=O)(=O)N3CC(O)C3)c2)c1 the screen gave T1: no hit; T2: no hit; T3: no hit. c1ccc2c(CN3CCCC4(CCNCC4)CC3)ccnc2c1 was scored T1: no hit; T2: no hit; T3: no hit. COc1cccc(OCc2cc(C3Nc4ccccc4C(=O)N3Cc3ccccc3)ccc2OC)c1 (centres undefined) was scored T1: no hit; T2: no hit; T3: no hit. With CCOC(=O)c1ccccc1Nc1cn(C(C)=O)c2ccccc12 the screen gave T1: no hit; T2: no hit; T3: no hit.

Calls for CS(=O)(=O)N(CC(O)Cn1c2ccccc2c2ccccc21)c1ccc(F)cc1 (centres undefined) are T1: no hit; T2: no hit; T3: no hit. With CC(=O)C1=C(NCCc2nc3ccccc3[nH]2)CC(c2ccccc2)CC1=O (centres undefined) the screen gave T1: no hit; T2: no hit; T3: no hit. For CC(C)Cc1nc2sc3c(NCCO)ncnc3c2c2c1COC(C)(C)C2 the calls were T1: no hit; T2: no hit; T3: no hit. CN1CCC2(CCC1=O)CN(C(=O)c1cccc(CO)n1)CCN2C (centres undefined) was scored T1: no hit; T2: no hit; T3: no hit. Calls for CC(=O)c1c(C)nc(Nc2nc3ccccc3o2)nc1C are T1: no hit; T2: no hit; T3: no hit. For CC(O)c1ccc(-c2ccc(CNCCCn3ccnc3)o2)cc1.Cl.Cl (centres undefined) the calls were T1: no hit; T2: no hit; T3: no hit. O=C(O)c1cccc(Nc2nc(-c3cccnc3)cs2)c1 was scored T1: no hit; T2: no hit; T3: no hit.

Calls for N[C@H]1CN(C(=O)c2cnc(N3CCOCC3)nc2)C[C@@H]1c1ccccc1 are T1: no hit; T2: no hit; T3: no hit. For COc1ccc(O)cc1-c1c(-c2ccccc2)ncn1[C@@H](CO)C(=O)O the calls were T1: no hit; T2: no hit; T3: no hit. Calls for CCc1nc2ccccc2n1CC(O)COc1cc(C)ccc1C (centres undefined) are T1: no hit; T2: no hit.

Some entries from above, unchanged:

| Compound | T1 | T2 | T3 |
|---|---|---|---|
| `CNCCCN1c2ccccc2CCc2ccccc21` | no hit | no hit | no hit |
| `O=C(O)c1cccc(Nc2nc(-c3cccnc3)cs2)c1` | no hit | no hit | no hit |
| `CCc1nc2sc(C(=O)Nc3cccc(C(F)(F)F)c3)c(N)c2cc1C` | no hit | no hit | no hit |